107 compounds from PubChem BioAssay AID463116 (University of Pittsburgh Molecular Library Screening Center, 2010) can be followed below.

Molecules are shown by their SMILES. The list shows a part of the results. The main result of the screen is listed elsewhere. These columns were measured beside it and carry no call. Most of these compounds were active or inconclusive in the main read-out, so they are no random draw.

A short description of this assay: dynein cargo transport inhibitors, GR-EGFP translocation, confirmation, imaging, high-content imaging, GR-EGFP cells (AID 463116). Conditions: 3617.4 GR-EGFP nuclear translocation imaging, dexamethasone-induced; measured here: cell count per field; at 20 µM.
For `CCCn1nc([N+](=O)[O-])c(C(C#N)c2nc3ccccc3s2)c(Cl)c1=O` (configuration not stated), the z-score came out at 0.912.
In the case of `O=C(NCc1cccnc1)/C(=C\c1ccc(-c2ccc(Br)cc2)o1)S(=O)(=O)c1ccccc1` it was 0.0511; in that of `N#Cc1nccnc1S(=O)(=O)c1cccs1`, -1.13.
Take `O=C1c2ccccc2-c2onc3ccc(NCc4ccco4)c1c23`: the z-score was -0.405.
In turn, `ClCc1nnc(-c2cc3c(s2)CCCC3)o1` yielded a z-score of 0.0278.
In the case of `Cn1ncc(S(=O)(=O)Cc2ccccc2)c(Cl)c1=O` it was -0.0555.
`COc1cccc(-n2nnnc2S(C)(=O)=O)c1`: the z-score is -0.107.
The same measure for `O=[N+]([O-])c1ccc(-n2nnnc2-c2ccccc2)c([N+](=O)[O-])c1`: 0.264.
The same measure for `CCn1c(=O)cc(C(=O)OC)sc1=Nc1ccc(F)c(F)c1`: -0.181.
In the case of `Cc1[nH]c2ccccc2c1CN1CCc2ccccc2C1` it was 0.335.
In the case of `COC(=O)C1=C(C)N(CCC2=CCCCC2)C(=O)C1`, the z-score is -0.202.
As to `CCOc1cc(/C=C2/COc3ccccc3C2=O)ccc1OCC(=O)N(C)C`, the z-score worked out at 0.201.
In the case of `N#CC(C#N)=C1C=C2C=C(N3CCCCC3)CCC2CC1` (configuration not stated) it was 0.505; in that of `O=C(CCl)Nc1ccc(N2CCCCCC2)cc1`, -0.177.
The same measure for `CC(C)N=c1scc(-c2cccs2)n1/N=C/c1ccc(O)c(O)c1O`: 0.315.
The same measure for `C=CCNCCCOc1ccc(Cl)cc1C(C)(C)C`: -0.773.
Consider `CC(=O)/C=C/n1c(=S)oc2ccccc21`, for which the z-score is -0.152.
In the case of `COc1ccc(C2=CC(=O)N(Nc3ccccc3)C2=O)cc1` it was 0.228.
On to `Cc1ncc(CCl)c2c1OC(C)(C)OC2`, for which the z-score came to 0.375.
`CC(=O)Nc1sc(/C(C#N)=C\c2cccc(Cl)c2)nc1-c1ccc(C)cc1` yielded a z-score of -0.703.
The same measure for `Cc1ccc(SC(=O)c2c(C)noc2-c2cc(C)on2)cc1`: -0.185; for `O=C1CCCC(O)=C1C(C#Cc1ccccc1)C1=C(O)CCCC1=O`: 0.686.
Turning to `Cc1ccccc1NC(=O)COC(=O)c1ccc(S(C)(=O)=O)c([N+](=O)[O-])c1`, the z-score was determined as 0.408.
The compound `CN(C)c1ccc(/C=C2\CCC/C(=C\c3ccccc3)C2=O)cc1` had a z-score of 0.395.
`CC(C)C(=O)N1CCN(c2ccc(NC(=O)c3ccc([N+](=O)[O-])o3)cc2Cl)CC1` had a z-score of 0.485.
The same measure for `Cc1cc(C)cc(N=Cc2[nH]c3ccc(Br)c(Cl)c3c2O)c1`: 0.167; for `COc1cc(N2C(=O)C=CC2=O)c(OC)cc1Cl`: -1.86; for `Fc1ccc(CNc2nc(-c3ccco3)cc(C(F)(F)F)n2)cc1`: 1.23.
The same measure for `CCOC(=O)c1c(-c2ccc(C)cc2)csc1NC(=O)/C(C#N)=C/c1ccc(O)c(OC)c1`: 0.248.
For the compound `COC(=O)c1cc(=O)n(Cc2ccco2)c(=Nc2ccc(F)c(Cl)c2)s1`, the z-score is 0.235.
In the case of `COc1ccc(-c2cc(C(F)(F)F)nc(S(C)(=O)=O)n2)cc1` it was -0.0975; in that of `CCOC(=O)/C(=C\c1cccnc1)C(=O)c1cc(C(C)=O)c(Nc2ccccc2)s1`, 0.172.
The same measure for `Cc1nc(SC2CC(=O)N(c3ccccc3)C2=O)n[nH]1` (configuration not stated): -0.0695.
For the compound `CCN(CC)c1ccc(/C=N/NC(=O)C(O)(c2ccccc2)c2ccccc2)o1`, the z-score was -0.278.
The same measure for `Cc1ccccc1CS(=O)(=O)c1nnc([C@H](CC(C)C)NC(=O)OC(C)(C)C)o1`: 0.00937.
The same measure for `Cn1cc([N+](=O)[O-])c(C(=O)Nc2cc(Oc3ccccc3)cc([N+](=O)[O-])c2)n1`: 0.28.
The same measure for `Cc1nc([N+](=O)[O-])c(Br)n1Cc1ccc(Cl)c(Cl)c1`: -0.463; for `O=C(NCc1cccnc1)/C(=C/c1ccc(-c2cccc(Cl)c2)o1)S(=O)(=O)c1ccccc1`: 0.262; for `CCSc1nnc(-c2sc3nnc(-c4ccccc4)c(-c4ccccc4)c3c2N)o1`: 0.224.
`Nc1c(C(=O)C2CC2)sc2nc(-c3ccccc3)cc(C(F)(F)F)c12`: the z-score is 0.041.
In the case of `CCOC(=O)CSC1=NC(=O)/C(=C/c2ccc(Br)cc2)S1`, the z-score was found to be 0.936.
Regarding `Cc1cccc(NC(=O)CN2C(=O)N/C(=C/c3ccc(C)s3)C2=O)c1`, the z-score worked out at 0.722.
`O=C1C(Cl)=C(NCCN2CCCCC2)C(=O)c2ccccc21` gave a z-score of -0.334.
`Cc1ccc(C(C[N+](=O)[O-])n2nc(C)cc2C)cc1` (configuration not stated) yielded a z-score of -1.61.
Consider `CSC(SC)=C(C#N)C(=O)c1ccccc1`, for which the z-score was 0.472.
In turn, `O=[N+]([O-])c1ccc(N/N=C/c2cn(Cc3ccc(F)cc3)c3ccccc23)nc1` gave a z-score of 0.522.
`N#C/C(=C/c1ccc(N2CCCCCC2)o1)c1ccc(Cl)cc1` came in with a z-score of 0.321.
The same measure for `O=[N+]([O-])c1ccc(C=Nc2ccc(Cl)c([N+](=O)[O-])c2)s1`: 0.206; for `CCN(CC)Cc1cc(O)c(CN(CC)CC)cc1O`: 0.27; for `Cc1nc([N+](=O)[O-])c(Br)n1CC(=O)c1ccccc1`: 0.378.
In the case of `N#C/C(=C\c1sc(N2CCOCC2)nc1-c1ccccc1)C(=O)Nc1cccc2ccccc12` it was 0.159; in that of `CC(C)Cn1c([N+](=O)[O-])nc2c1c(=O)[nH]c(=O)n2C`, 0.365.
In the case of `Cc1cc(C(=O)CCl)c(C)n1CCc1ccc(Cl)cc1` it was 0.517; in that of `CCOC(=O)/C(=C/C=C1\Sc2cc(C)c(C)cc2N1CC)C(C)=O`, 0.415.
Compound `Cc1sc(NC(=O)CCl)c(C(=O)c2ccccc2)c1C` displayed a z-score of 0.138.
In the case of `Cc1cc2oc(=O)cc(Cn3ncc(Cl)c(Cl)c3=O)c2cc1Cl` it was -0.331.
In the case of `CCCNC(=O)Cn1sc2nc(C)cc(C)c2c1=O` it was -0.751; in that of `CCOC(=O)/C(=C\C=C1/Sc2cc(OCC)c(OCC)cc2N1CC)C(C)=O`, -0.3; in that of `Cc1cc(Cl)n2c(nc3cc(F)c(F)cc32)c1C#N`, -0.457.
With `COc1ccc(C(=O)n2nc(-c3ccco3)nc2SC)cc1OC`, the z-score was 0.796.
With `CCOC(=O)C=C(C(=O)OCC)C(=O)OCC`, the z-score is -0.0898.
With `COc1ccccc1-[n+]1c(C)cc(/C=C2\Sc3ccccc3N2C)cc1C`, the z-score was -0.758.
Compound `CCN1C/C(=C/c2ccc(N3CCOCC3)cc2)C(=O)/C(=C/c2ccc(N3CCOCC3)cc2)C1` came in with a z-score of -0.486.
In the case of `Cc1cc(C)c2c(=O)n(CC(=O)NC3CCCC3)sc2n1` it was 0.131; in that of `CC(=O)OCCCNc1cc(Sc2ccc(Cl)cc2)c2nonc2c1[N+](=O)[O-]`, -0.19.
The same measure for `Cc1ccc(-n2nnnc2Sc2ccc(S(=O)(=O)NCCN(C)C)cc2[N+](=O)[O-])cc1`: 0.731; for `CCOc1ccc(-n2c(C)cc(C(=O)CCl)c2C)cc1`: -0.0309; for `CCC(=O)N1CCN(c2ccc(NC(=O)c3ccc([N+](=O)[O-])o3)cc2Cl)CC1`: 0.0525.
In the case of `COc1ccc(-n2c(C)cc(C(=O)CCl)c2C)cc1` it was 0.308; in that of `Cn1c(=O)c(NCCO)c2c3c(cccc31)C(=O)c1ccccc1-2`, 0.742.
Consider `Cc1ccc(C)c(C(=O)Cn2ncc(Cl)c(Cl)c2=O)c1`, for which the z-score is -1.46.
The same measure for `COc1cc(OC)nc(-n2ncc(Br)c(Br)c2=O)n1`: -0.0916; for `CCN(CC)c1ccc(/C=C2\CCC(/C=N/NC(=O)c3ccc(=O)n(C)c3)=C2N2CCOCC2)cc1`: -0.0319; for `O=[N+]([O-])c1ccc(Sc2nccn2Cc2ccccc2)c([N+](=O)[O-])c1`: -0.66.
The compound `COc1cc(C(Nc2ccccn2)c2ccc3ccc(C)nc3c2O)cc(OC)c1O` (configuration not stated) yielded a z-score of -0.509.
In the case of `Cc1ccccc1NC(=O)C(Cl)=C(Cl)Cl` it was 0.11.
With `COc1cccc(/C=C/C(=O)c2cccc([N+](=O)[O-])c2)c1OC`, the z-score came out at 0.267.
The same measure for `COC(=O)c1cc(=O)n(Cc2ccc(OC)c(OC)c2)c(=Nc2ccc(F)cc2)s1`: 0.489.
In the case of `CC1(C)CC(=O)C2=C(C1)OC1=C(C(=O)CC(C)(C)C1)C2c1ccc(O)cc1O` it was 1.06; in that of `Nc1nc(CCl)nc(Nc2ccc3ccccc3c2)n1`, 0.228.
In the case of `O=C(c1cccs1)n1nc(-c2ccccc2)nc1NCc1ccco1` it was 0.525; in that of `CS(=O)(=O)c1sc(C#N)c2c1C(=O)CC(c1ccccc1)C2` (configuration not stated), -0.534; in that of `CCCCCCCOC(=O)C[N+](C)(C)CCOC1CC2CCC1(C)C2(C)C` (configuration not stated), -5.44.
`COc1ccccc1NC1=C(NC(C)=O)C(=O)c2ccccc2C1=O` returned a z-score of -0.48.
In the case of `COc1ccc(-c2csc3nc(-c4cccnc4)nc(Cl)c23)cc1OC` it was 0.108; in that of `O=C(CCl)Nc1cc(-c2ccccc2)nn1-c1ccccc1`, -0.158; in that of `CS(=O)c1nc(-c2ccc(Br)cc2)cc(-c2ccccc2)c1C#N` (configuration not stated), -3.14.
In the case of `Cc1ccc(S(=O)(=O)NC2OC(=O)C(Cl)=C2Cl)cc1` (configuration not stated) it was -0.792.
The same measure for `CCOC(=O)c1c(C)oc2c1c(C(c1cccnc1)N1CCOCC1)c(O)c1ccccc12` (configuration not stated): 0.994; for `O=C(CCl)N1N=C(c2ccco2)CC1c1cccs1` (configuration not stated): 0.156; for `O=[N+]([O-])c1c(NCCCO)cc(SCc2ccco2)c2nonc12`: 0.397.
`CCn1nc([N+](=O)[O-])c(C(C#N)c2nc3cc(C(F)(F)F)ccc3s2)c(Cl)c1=O` (configuration not stated) gave a z-score of -0.206.
Compound `CCCOc1ccc(C(=O)CCN2CCN(C(=O)OCC)CC2)cc1` yielded a z-score of -0.164.
In the case of `Clc1ncnc2scc(C3COc4ccccc4O3)c12` (configuration not stated) it was 1.18; in that of `COc1ccc(/C=C(/C(=O)c2cccs2)N2C=CC=CC2=C(C#N)C#N)cc1`, -1.29; in that of `O=C(CN(c1cccc(C(F)(F)F)c1)S(=O)(=O)c1ccc(Cl)c([N+](=O)[O-])c1)NCc1ccccc1`, -0.216.
The compound `CC(=O)/C=C1/C(=O)Nc2ccccc21` came in with a z-score of 0.192.
`CCOC(=O)C1CCN(C(=O)Nc2ccc3nc(-c4ccco4)c(-c4ccco4)nc3c2)CC1` displayed a z-score of 0.554.
In the case of `O=c1c2ccccc2nc(/C=C/c2ccc([N+](=O)[O-])o2)n1CCCO` it was 0.0205; in that of `COC(=O)c1ccc(C(=O)OC)c(-n2c(=O)c3ccccc3c3ccccc3c2=O)c1`, 0.125.
In the case of `Cc1nc2c(ccc3nc(NC(=O)c4ccc(S(=O)(=O)N(C)C)cc4)sc32)s1` it was 0.876; in that of `Cc1ccc2nc(Nc3ccc4[nH]c(=O)[nH]c4c3)c(-n3nc(C)cc3C)nc2c1`, 0.359.
Compound `COc1ccc(N2C(=O)CC(Sc3ncn[nH]3)C2=O)c(OC)c1` (configuration not stated) had a z-score of 0.251.
On to `CCCc1ccc(/C=C2\C(=O)c3ccccc3C(O)=C2C(=O)OCC)cc1`, for which the z-score was -1.88.
In the case of `O=C(CCSc1ccccn1)c1ccccc1` it was 0.857.
In the case of `CC(C)N(C(=O)COC(=O)c1ccccc1C(=O)c1ccc(Cl)c([N+](=O)[O-])c1)C(C)C` it was 0.0465; in that of `CCCC(=O)N1CCN(c2ccc(NC(=O)c3ccc([N+](=O)[O-])o3)cc2)CC1`, 0.105.
